# Primary screen of a compound library

Source: ChEMBL document CHEMBL3988442, “University of Dundee, Small-Polar-MMV Screening Library” (2021).

T. brucei: 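Whole-parasite assay of Trypanosoma brucei over 72 hours; the read-out is not stated. Tested at 30 µM. Higher reads as stronger inhibition (inferred: compounds with an IC50 in retests scored well above the rest). Values scatter widely below zero; nearly all retest evidence comes from the higher of the two concentrations used. Size under these conditions: about 64,000 compounds, about 940 of them at 50% or above in at least one test.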
Toxoplasma: 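Assay of Toxoplasma gondii numbers, read through their beta-galactosidase reporter with a colour substrate. Tested at 10 µM. The record gives no direction; the compounds picked for IC50 retests had high values, so higher reads as fewer parasites. Of about 67,000 compounds tested this way, about 260 (0.38%) reached 50% or more in at least one test.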
Leishmania in macrophages: 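Cell assay of Leishmania donovani living inside macrophages; the read-out is not stated. Concentration: 30 µM. Higher reads as stronger inhibition (inferred: compounds with an IC50 in retests scored well above the rest). About 69,000 compounds were tested under these conditions; 1.5% (about 1,000) showed 50% or more at least once.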

Values are the deposited “Percent Effect”, in %. The controls that fix the scale are not given in the record; negative values are as filed. Compounds were drawn at random from those tested, without regard to their results. Two or more numbers in one place are separate tests of the same structure; such repeats can differ widely.

{"compound": "NC(=O)CN1CCC(C(=O)N2CCCC(OCc3cccnc3)C2)CC1", "stereo": "stereo not shown", "T. brucei": 52.75, "Toxoplasma": -3.37, "Leishmania in macrophages": -5.142}
{"compound": "Cc1ncsc1CCN1CCC(N(C)Cc2noc(C(C)C)n2)C1", "stereo": "stereo not shown", "T. brucei": -12.17, "Toxoplasma": 1.121, "Leishmania in macrophages": -9.319}
{"compound": "CC1CCc2nc(O)c(C(=O)NCc3cccc(F)c3)cc2C1", "stereo": "stereo not shown", "T. brucei": -29.54, "Toxoplasma": -6.097, "Leishmania in macrophages": -18.78}
{"compound": "CC(C)N1CC(C(=O)N2CCN(CCn3cccc3)CC2)CC1=O", "stereo": "stereo not shown", "T. brucei": -10.02, "Toxoplasma": 2.483, "Leishmania in macrophages": 25.43}
{"compound": "COc1ccc(C(=O)N2CC(=O)N(C3CCC3)CC(O)C2)cc1OC", "stereo": "stereo not shown", "T. brucei": -13.34, "Toxoplasma": -12.81, "Leishmania in macrophages": 18.35}
{"compound": "NC(=O)c1ccc(C2CCCN2C(=O)CCc2nc3ccccc3s2)s1", "stereo": "stereo not shown", "T. brucei": -27.07, "Toxoplasma": -17.31, "Leishmania in macrophages": 22.24}
{"compound": "O=C(CC1CCN(c2cccnn2)CC1)Nc1nncs1", "T. brucei": -9.364, "Toxoplasma": 4.537, "Leishmania in macrophages": 8.702}
{"compound": "CCN1CCn2c(C)cnc2C12CCN(C(=O)COC)CC2.O=C(O)C(F)(F)F.O=C(O)C(F)(F)F", "T. brucei": -5.478, "Toxoplasma": 8.876, "Leishmania in macrophages": 4.969}
{"compound": "COc1cccc(OCCc2nc3c(cc2C(N)=O)CCC3)c1", "T. brucei": 9.785, "Toxoplasma": -10.96, "Leishmania in macrophages": 12.24}
{"compound": "Cc1ccc(CN2Cc3nnn(C)c3C(COCC(=O)N(C)C)C2)s1.O=C(O)C(F)(F)F", "stereo": "stereo not shown", "T. brucei": -47.46, "Toxoplasma": -13.89, "Leishmania in macrophages": 0.6745}
{"compound": "COc1ccc(Cn2c(=O)n(C)c(=O)c3sccc32)cc1", "T. brucei": -15.33, "Toxoplasma": -4.856, "Leishmania in macrophages": 18.46}
{"compound": "CC(C)S(=O)(=O)CC(=O)N1CCCC(n2ccnc2)C1", "stereo": "stereo not shown", "T. brucei": -6.473, "Toxoplasma": -6.44, "Leishmania in macrophages": -82.41}
{"compound": "COc1ccc(C(C)NC(=O)N2CCNC(=O)CC2)cc1F", "stereo": "stereo not shown", "T. brucei": -9.652, "Toxoplasma": -15.62, "Leishmania in macrophages": 4.442}
{"compound": "CN(C)c1ccc(NC(=O)CN2CCS(=O)(=O)CC2)cn1", "T. brucei": -551.3, "Toxoplasma": -2.862, "Leishmania in macrophages": -45.2}
{"compound": "Cc1ncc(CN(C)C(=O)Nc2cccc(N3CCOC3=O)c2)s1", "T. brucei": -108.5, "Toxoplasma": -1.789, "Leishmania in macrophages": -24.67}
{"compound": "COc1ccc(F)c(CN2CCCC(c3cc(O)nc(C)n3)C2)c1", "stereo": "stereo not shown", "T. brucei": 11.44, "Toxoplasma": 10.91, "Leishmania in macrophages": -3.632}
{"compound": "CN([C@@H]1CC[C@@H](N2CCOCC2)[C@@H]1O)S(=O)(=O)c1ccccc1", "T. brucei": -19.52, "Toxoplasma": 21.78, "Leishmania in macrophages": -22.14}
{"compound": "CCc1noc(CN2CCN(CCO)CC2)n1", "Toxoplasma": 14.36, "Leishmania in macrophages": -2.064}
{"compound": "C[C@H](c1ccc(Cl)cc1)n1c(C2CC2)n[nH]c1=O", "T. brucei": -16.14, "Leishmania in macrophages": 3.321}
{"compound": "Cc1cccnc1CC(C)NC1CCSCC1", "stereo": "stereo not shown", "T. brucei": 10.02, "Toxoplasma": -4.092, "Leishmania in macrophages": 32.69}
{"compound": "Cc1cc(CNC(=O)NCc2ccccc2N2CCOCC2)no1", "T. brucei": -21.2, "Toxoplasma": 0.6554, "Leishmania in macrophages": 9.478}
{"compound": "O=S(=O)(Nc1ccc(N2CCOCC2)cn1)c1cccc(F)c1", "T. brucei": -51.32, "Toxoplasma": 0.8323, "Leishmania in macrophages": 37.04}
{"compound": "COc1ccc(CNC(=O)NCc2c(C)cc(C)[nH]c2=O)cc1", "T. brucei": 50.39, "Toxoplasma": -2.448, "Leishmania in macrophages": -8.491}
{"compound": "COC1CCCOC12CCN(C(=O)NCCc1cccs1)CC2", "stereo": "stereo not shown", "T. brucei": -138.4, "Toxoplasma": -34.35, "Leishmania in macrophages": 12.93}
{"compound": "CCc1nsc(N2CCCN(C(=O)c3ccsc3)CC2)n1", "T. brucei": -67.6, "Toxoplasma": -2.304, "Leishmania in macrophages": -8.34}
{"compound": "Cc1n[nH]c(C2CN(C(=O)c3ccco3)CCO2)n1", "stereo": "stereo not shown", "T. brucei": 12.93, "Toxoplasma": 1.76, "Leishmania in macrophages": 25.78}
{"compound": "O=c1c(NCCCO)c(N2CCN(c3ccccc3)CC2)c1=O", "T. brucei": -7.115, "Toxoplasma": -13.4, "Leishmania in macrophages": "16.68 and 50.07"}
{"compound": "CCC(CNS(N)(=O)=O)Oc1ccccc1F", "stereo": "stereo not shown", "T. brucei": -17.24, "Toxoplasma": -11.28, "Leishmania in macrophages": 9.899}

Some entries from above, unchanged:

| compound | T. brucei | Toxoplasma | Leishmania in macrophages |
|---|---|---|---|
| `CCc1nsc(N2CCCN(C(=O)c3ccsc3)CC2)n1` | -67.6 | -2.304 | -8.34 |
| `O=S(=O)(Nc1ccc(N2CCOCC2)cn1)c1cccc(F)c1` | -51.32 | 0.8323 | 37.04 |